Source: PubChem BioAssay AID504774 (Drosophila RNAi Screening Center, 2011)
In all, the deposit lists about 23,000 reagents; this is a random part of those that have a named target and a result. 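Values are quantile-normalised luminescence on an arbitrary scale; higher means more cells surviving MMS.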 Names joined by + are all predicted targets of the reagent. Not all columns of the deposit are shown.

Assay: 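Genes required for cells to withstand methyl methanesulphonate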 (primary screen)
Cell system: Drosophila Kc167 cells
Knock-down reagent: long dsRNA against Drosophila genes, about 0.25 µg dsRNA per well
Timing: about 6 days: 3 days knock-down, then 3 days with or without MMS
Treatment: methyl methanesulphonate 0.004% (w/v) for 3 days after knock-down
Measurement: 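ATP-dependent luminescence as a measure of live cells in MMS-exposed wells, quantile normalised within each plate, with replicate values also given as a mean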
Reading the numbers: mean viability with MMS and viability with MMS: higher = more surviving cells after MMS

gene,PubChem SID,mean viability with MMS,"viability with MMS, replicate 1"
Gem4b + Gem4c,SID104197086,3.53e6,3.99e6
CG3107,SID104184680,3.52e6,4.15e6
CG14085,SID104189881,3.52e6,4.00e6
Nipped-A,SID104184674,3.57e6,4.05e6
Nipped-A,SID104184675,3.15e6,3.49e6
Nipped-A,SID104184676,3.12e6,3.48e6
Nipped-A,SID104187530,3.28e6,3.74e6
Nipped-A,SID104201865,2.62e6,3.71e6
MED30 (Mediator complex subunit 30),SID104188308,3.01e6,3.61e6
MED30 (Mediator complex subunit 30),SID104202492,2.98e6,3.32e6
CG10898,SID104194071,3.62e6,4.16e6
CG6937 + btn,SID104196709,3.47e6,3.98e6
CG14570,SID104191523,3.60e6,4.15e6
CG33454,SID104202272,3.59e6,4.01e6
CG30177,SID104202072,3.48e6,3.99e6
CR18275 + CR18166 + CG32817,SID104197041,3.56e6,4.04e6
Usp39 (Ubiquitin specific protease 39),SID104199824,3.45e6,3.93e6
CG33695 + cana,SID104180955,3.36e6,3.87e6
CG33695 + cana,SID104183295,3.54e6,3.94e6
lsn (larsen),SID104195873,3.65e6,4.19e6
pkaap,SID104181717,3.50e6,4.01e6
frtz (fritz),SID104180304,3.41e6,3.87e6
Polr1A (RNA polymerase I subunit A),SID104187327,3.51e6,3.94e6
CG9799,SID104196359,3.22e6,3.74e6
CaMKII (Calcium/calmodulin-dependent protein kinase II),SID104197006,3.59e6,4.03e6
CG10970,SID104197564,3.59e6,3.99e6
CG7551,SID104190668,3.49e6,3.82e6
CG17777,SID104197929,3.75e6,4.22e6
CG32983,SID104201853,3.51e6,4.00e6
Cdc27 (Cell division cycle 27),SID104190904,3.16e6,3.62e6
wds (will die slowly),SID104198644,3.82e6,4.37e6
RpS13 (Ribosomal protein S13),SID104183211,2.66e6,2.94e6
"SmydA-2 (SET and MYND domain containing, arthropod-specific, member 2)",SID104190088,3.37e6,3.83e6
Cpr65Au (Cuticular protein 65Au),SID104202112,3.56e6,4.02e6
hbn (homeobrain),SID104183874,2.79e6,3.55e6
hbn (homeobrain),SID104184030,3.54e6,3.84e6
hbn (homeobrain),SID104184031,3.52e6,3.92e6
hbn (homeobrain),SID104201907,3.48e6,4.01e6
esg (escargot),SID104183322,3.58e6,4.05e6
CG5280,SID104190290,3.48e6,3.92e6
CG5280,SID104202194,3.45e6,3.89e6
CG32228,SID104201809,3.46e6,3.94e6
Snx21 (Sorting nexin 21),SID104180356,3.51e6,4.04e6
d-cup (davis-cup),SID104194638,3.35e6,3.86e6
CG5107,SID104195508,3.47e6,3.96e6
Taf1 (TBP-associated factor 1),SID104192399,3.32e6,3.84e6
Hil (Hillarin),SID104185781,3.62e6,4.13e6
Hil (Hillarin),SID104186187,3.49e6,3.93e6
Gprk1 (G protein-coupled receptor kinase 1),SID104200524,2.46e6,4.08e6
Gprk1 (G protein-coupled receptor kinase 1),SID104200708,2.26e6,3.99e6
CG7368,SID104190618,3.47e6,3.75e6
CG7368,SID104202180,3.40e6,3.98e6
Cpr5C (Cuticular protein 5C),SID104198132,3.60e6,4.13e6
CG13996,SID104182120,3.53e6,3.97e6
RpS16 (Ribosomal protein S16),SID104184234,3.12e6,3.55e6
CG42241 (retired record),SID104183799,3.64e6,4.34e6
RapGAP1 (Rap GTPase activating protein 1),SID104182085,3.61e6,4.05e6
RapGAP1 (Rap GTPase activating protein 1),SID104182086,3.46e6,3.90e6
RapGAP1 (Rap GTPase activating protein 1),SID104183198,3.58e6,3.96e6
CG8517,SID104186997,3.55e6,4.14e6
Egfrap (EGFR adaptor protein),SID104189755,3.47e6,3.92e6
Egfrap (EGFR adaptor protein),SID104189756,3.46e6,3.87e6
gom (gomdanji),SID104184482,3.56e6,4.00e6
Nse1 (Non-SMC element 1),SID104181939,3.38e6,3.81e6
Cpr67Fa1 (Cuticular protein 67Fa1),SID104190724,3.71e6,4.12e6
Acp26Aa (Accessory gland protein 26Aa),SID104181647,3.55e6,4.08e6
Phae2 (Phaedra 2),SID104182347,3.75e6,4.14e6
eIF4H2 (eukaryotic translation initiation factor 4H2),SID104194374,3.47e6,3.84e6

Already shown: 8 of the entries above.
gene,PubChem SID,mean viability with MMS,"viability with MMS, replicate 1"
CG13996,SID104182120,3.53e6,3.97e6
RpS16 (Ribosomal protein S16),SID104184234,3.12e6,3.55e6
CG42241 (retired record),SID104183799,3.64e6,4.34e6
RapGAP1 (Rap GTPase activating protein 1),SID104182085,3.61e6,4.05e6
RapGAP1 (Rap GTPase activating protein 1),SID104182086,3.46e6,3.90e6
RapGAP1 (Rap GTPase activating protein 1),SID104183198,3.58e6,3.96e6
CG8517,SID104186997,3.55e6,4.14e6
Egfrap (EGFR adaptor protein),SID104189755,3.47e6,3.92e6
